Data: patent US20250312462A1, “PAK1 DEGRADERS AND METHODS OF USE THEREOF” (INSTITUTE FOR CANCER RESEARCH D/B/A THE RESEARCH INSTITUTE …, priority 2022, published 2025)
At least one structure is not confirmed: it was looked up by name or label, or the drawing left a doubt.

Experiments:
MCF7 cells = experiment: Cell proliferation, MTT assay; assay type: cell-based; conditions: PAK1 levels reduced ~50% using shRNA
Method: Cell proliferation was assessed by MTT assay.
Cell viability was measured by MTT assay and the half maximal inhibitory concentration (IC50) was calculated using GraphPad Prism. Triplicates were performed for each sample and medium alone was used as a blank.
The anti-proliferative effects of PAK1 degradation and inhibition were evaluated.

MEK1 at S298 = experiment: MEK phosphorylation in OVCAR3 and MCF7 cells, immunoblot; assay type: cell-based; conditions: 10 nM, 24 hours
Method: (§1) FIG. 3A is a series of Western blots showing OVCAR3 and MCF7 cells that were treated for 24 hours with DMSO, 10 nM BJG-05-039, or NVS-PAK1-1 as indicated. MEK and ERK phosphorylation was assessed by immunoblot with the indicated phosphorylation-specific antibodies. FIG. 3B is a Western blot showing MCF7 cells that were stably transduced with a doxycycline-regulated shRNA against PAK1. shRNA expression was induced by the indicated amounts of doxycycline and immunoblots were performed using cell lysates 24 hours post doxycycline addition. FIG. 3C is a Western blot showing MCF7 cells that were treated with vehicle or […] doxycycline. Immunoblots were performed using cell lysates 24 hours post doxycycline addition.
(§2) Cells were washed once in PBS and lysed in RIPA buffer (50 mM Tris-HCl, 150 mM NaCl, 0.25% (w/v) sodium deoxycholate, 1% (w/v) NP-40, pH 7.5) containing protease inhibitor cocktail (Roche) and phosphatase inhibitor cocktail (Roche) for 30 minutes on ice. […]
(§3) In certain cell lines, PAK1 has well-characterized functions in regulating proliferative signaling. […] As a readout for anti-PAK activity, phosphorylation of MEK1 at S298 was assessed, a direct target site for Group A PAKs (Coles, et al. (2002) Oncogene 21:2236-2244; Slack-Davis, et al. (2003) J. Cell. Biol., 162:281-291), as well as phosphorylation of the downstream target of MEK, ERK. […]

ERK = ERK phosphorylation in OVCAR3 and MCF7 cells, immunoblot; assay type: cell-based; conditions: 10 nM, 24 hours
Method: as §1, §2, §3

PAK1 over PAK2 = conditions: cited from earlier work

## CC(C)NC(=O)N1CC[C@H](NC2=Nc3cc(F)ccc3N(CC(F)F)c3ccc(Cl)cc32)C1 [NVS-PAK1-1, reference compound]
MCF7 cells
  Anti-proliferative effect with PAK1 knockdown: much more potent anti-proliferative effects
MEK1 at S298
  Phosphorylation of MEK S298: no visible impact
ERK
  Phosphorylation of ERK: no visible impact
PAK1 over PAK2
  Specificity for PAK1 over PAK2: approximately 50 fold
